These are yes or no findings as the source states them, for the method shown. Binding seen in cells or lysates may run through a third protein. Here binding means that the protein was enriched with, or labelled near, the bait; the list need not be complete.
The substances below were run against DPF2-FTAP (mouse (endogenous allele in E14 ESCs)) (UniProt Q61103) (assay: affinity purification with mass spectrometry; ESCs expressing DPF2-FTAP crosslinked with 1% formaldehyde for 10 min; high salt lysis buffer (450 mM NaCl, 0.2% Nonidet P-40), benzonase; anti-FLAG M2 Dynal beads in 150 mM NaCl, 0.1% NP-40, 90 min at 4°C; washes with RIPA and RIPA with 450 mM NaCl; elution with 3X FLAG peptide; control beta-gal-FTAP ESC line).

The chains behind the UniProt entries cited, without tags or fusion partners.
UniProt Q61103: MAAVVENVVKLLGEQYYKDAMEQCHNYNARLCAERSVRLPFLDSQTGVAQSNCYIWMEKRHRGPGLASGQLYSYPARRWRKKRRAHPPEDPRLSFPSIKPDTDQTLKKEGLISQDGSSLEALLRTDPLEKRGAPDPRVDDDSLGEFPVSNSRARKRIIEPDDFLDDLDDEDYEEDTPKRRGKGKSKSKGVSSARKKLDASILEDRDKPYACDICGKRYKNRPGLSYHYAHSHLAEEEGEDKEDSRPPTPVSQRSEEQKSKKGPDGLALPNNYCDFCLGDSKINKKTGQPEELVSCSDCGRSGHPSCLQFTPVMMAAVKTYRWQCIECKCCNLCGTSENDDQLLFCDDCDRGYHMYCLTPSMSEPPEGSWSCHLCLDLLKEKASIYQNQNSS
UniProt A2BH40: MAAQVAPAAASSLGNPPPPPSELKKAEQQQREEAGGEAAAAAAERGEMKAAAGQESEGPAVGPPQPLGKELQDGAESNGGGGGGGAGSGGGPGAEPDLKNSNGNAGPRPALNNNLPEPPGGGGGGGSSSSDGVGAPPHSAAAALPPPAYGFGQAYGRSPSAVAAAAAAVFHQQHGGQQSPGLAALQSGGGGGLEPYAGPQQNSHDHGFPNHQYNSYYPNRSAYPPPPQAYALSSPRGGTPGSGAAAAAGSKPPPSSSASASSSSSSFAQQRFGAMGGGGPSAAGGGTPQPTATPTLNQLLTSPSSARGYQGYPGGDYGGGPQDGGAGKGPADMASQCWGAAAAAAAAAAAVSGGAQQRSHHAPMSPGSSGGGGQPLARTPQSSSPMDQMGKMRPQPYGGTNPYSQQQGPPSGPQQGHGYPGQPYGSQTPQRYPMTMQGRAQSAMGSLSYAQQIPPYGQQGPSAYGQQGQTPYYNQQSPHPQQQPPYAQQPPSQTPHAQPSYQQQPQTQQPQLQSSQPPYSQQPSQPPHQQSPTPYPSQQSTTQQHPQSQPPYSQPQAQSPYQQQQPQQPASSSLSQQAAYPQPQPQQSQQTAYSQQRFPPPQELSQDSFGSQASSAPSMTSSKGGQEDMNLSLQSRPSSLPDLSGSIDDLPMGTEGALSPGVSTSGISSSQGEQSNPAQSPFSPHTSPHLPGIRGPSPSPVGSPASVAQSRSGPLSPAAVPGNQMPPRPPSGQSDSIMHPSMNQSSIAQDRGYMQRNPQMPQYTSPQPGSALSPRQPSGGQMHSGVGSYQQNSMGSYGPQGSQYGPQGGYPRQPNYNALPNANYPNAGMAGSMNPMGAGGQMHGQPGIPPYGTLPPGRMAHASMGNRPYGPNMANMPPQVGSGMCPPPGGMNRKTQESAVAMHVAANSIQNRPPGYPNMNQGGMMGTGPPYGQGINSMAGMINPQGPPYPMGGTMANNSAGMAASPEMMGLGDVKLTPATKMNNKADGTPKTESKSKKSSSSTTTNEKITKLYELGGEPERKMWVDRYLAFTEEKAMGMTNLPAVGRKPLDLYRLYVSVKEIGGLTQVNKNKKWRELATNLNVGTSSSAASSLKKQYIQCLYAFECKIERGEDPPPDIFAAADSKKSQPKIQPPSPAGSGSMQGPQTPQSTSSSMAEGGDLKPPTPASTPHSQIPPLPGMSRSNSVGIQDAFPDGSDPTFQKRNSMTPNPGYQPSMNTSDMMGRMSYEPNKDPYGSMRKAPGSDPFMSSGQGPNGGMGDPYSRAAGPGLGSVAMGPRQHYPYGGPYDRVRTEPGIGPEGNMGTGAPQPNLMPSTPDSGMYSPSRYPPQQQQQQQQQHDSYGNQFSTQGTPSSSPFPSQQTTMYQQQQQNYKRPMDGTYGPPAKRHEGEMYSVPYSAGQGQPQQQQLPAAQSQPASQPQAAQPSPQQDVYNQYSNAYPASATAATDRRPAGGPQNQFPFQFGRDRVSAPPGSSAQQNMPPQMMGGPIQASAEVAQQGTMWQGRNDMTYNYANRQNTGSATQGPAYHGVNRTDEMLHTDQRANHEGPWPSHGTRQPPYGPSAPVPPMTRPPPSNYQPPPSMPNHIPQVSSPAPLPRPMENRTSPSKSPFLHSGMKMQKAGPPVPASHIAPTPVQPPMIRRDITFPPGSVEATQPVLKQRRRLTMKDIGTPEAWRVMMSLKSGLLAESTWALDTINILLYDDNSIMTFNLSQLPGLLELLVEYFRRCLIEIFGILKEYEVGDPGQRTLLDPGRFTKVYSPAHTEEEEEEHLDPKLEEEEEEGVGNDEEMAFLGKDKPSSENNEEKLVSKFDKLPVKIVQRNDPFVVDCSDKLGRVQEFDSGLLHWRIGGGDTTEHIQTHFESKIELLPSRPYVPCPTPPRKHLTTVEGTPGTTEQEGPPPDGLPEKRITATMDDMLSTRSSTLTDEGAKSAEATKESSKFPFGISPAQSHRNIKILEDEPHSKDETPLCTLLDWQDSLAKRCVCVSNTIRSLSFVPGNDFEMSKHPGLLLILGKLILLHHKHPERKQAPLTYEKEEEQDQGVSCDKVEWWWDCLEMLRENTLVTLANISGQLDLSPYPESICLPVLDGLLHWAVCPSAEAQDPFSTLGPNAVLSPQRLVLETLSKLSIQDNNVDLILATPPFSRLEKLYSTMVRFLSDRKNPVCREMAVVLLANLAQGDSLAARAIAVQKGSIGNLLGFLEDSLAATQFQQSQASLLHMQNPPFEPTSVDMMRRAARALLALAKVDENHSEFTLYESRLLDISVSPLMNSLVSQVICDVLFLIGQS
UniProt O54941: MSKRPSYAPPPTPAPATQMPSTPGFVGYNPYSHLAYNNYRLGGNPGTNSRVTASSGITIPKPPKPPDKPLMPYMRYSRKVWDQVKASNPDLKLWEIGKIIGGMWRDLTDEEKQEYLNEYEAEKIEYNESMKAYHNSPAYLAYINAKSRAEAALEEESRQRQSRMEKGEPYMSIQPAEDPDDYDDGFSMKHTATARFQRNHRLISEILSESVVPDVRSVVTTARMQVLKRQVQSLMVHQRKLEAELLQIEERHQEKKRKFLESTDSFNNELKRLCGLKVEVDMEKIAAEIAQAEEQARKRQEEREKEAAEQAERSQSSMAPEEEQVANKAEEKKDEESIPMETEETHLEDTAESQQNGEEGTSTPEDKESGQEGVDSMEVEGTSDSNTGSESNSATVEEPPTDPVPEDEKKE
UniProt Q3TKT4: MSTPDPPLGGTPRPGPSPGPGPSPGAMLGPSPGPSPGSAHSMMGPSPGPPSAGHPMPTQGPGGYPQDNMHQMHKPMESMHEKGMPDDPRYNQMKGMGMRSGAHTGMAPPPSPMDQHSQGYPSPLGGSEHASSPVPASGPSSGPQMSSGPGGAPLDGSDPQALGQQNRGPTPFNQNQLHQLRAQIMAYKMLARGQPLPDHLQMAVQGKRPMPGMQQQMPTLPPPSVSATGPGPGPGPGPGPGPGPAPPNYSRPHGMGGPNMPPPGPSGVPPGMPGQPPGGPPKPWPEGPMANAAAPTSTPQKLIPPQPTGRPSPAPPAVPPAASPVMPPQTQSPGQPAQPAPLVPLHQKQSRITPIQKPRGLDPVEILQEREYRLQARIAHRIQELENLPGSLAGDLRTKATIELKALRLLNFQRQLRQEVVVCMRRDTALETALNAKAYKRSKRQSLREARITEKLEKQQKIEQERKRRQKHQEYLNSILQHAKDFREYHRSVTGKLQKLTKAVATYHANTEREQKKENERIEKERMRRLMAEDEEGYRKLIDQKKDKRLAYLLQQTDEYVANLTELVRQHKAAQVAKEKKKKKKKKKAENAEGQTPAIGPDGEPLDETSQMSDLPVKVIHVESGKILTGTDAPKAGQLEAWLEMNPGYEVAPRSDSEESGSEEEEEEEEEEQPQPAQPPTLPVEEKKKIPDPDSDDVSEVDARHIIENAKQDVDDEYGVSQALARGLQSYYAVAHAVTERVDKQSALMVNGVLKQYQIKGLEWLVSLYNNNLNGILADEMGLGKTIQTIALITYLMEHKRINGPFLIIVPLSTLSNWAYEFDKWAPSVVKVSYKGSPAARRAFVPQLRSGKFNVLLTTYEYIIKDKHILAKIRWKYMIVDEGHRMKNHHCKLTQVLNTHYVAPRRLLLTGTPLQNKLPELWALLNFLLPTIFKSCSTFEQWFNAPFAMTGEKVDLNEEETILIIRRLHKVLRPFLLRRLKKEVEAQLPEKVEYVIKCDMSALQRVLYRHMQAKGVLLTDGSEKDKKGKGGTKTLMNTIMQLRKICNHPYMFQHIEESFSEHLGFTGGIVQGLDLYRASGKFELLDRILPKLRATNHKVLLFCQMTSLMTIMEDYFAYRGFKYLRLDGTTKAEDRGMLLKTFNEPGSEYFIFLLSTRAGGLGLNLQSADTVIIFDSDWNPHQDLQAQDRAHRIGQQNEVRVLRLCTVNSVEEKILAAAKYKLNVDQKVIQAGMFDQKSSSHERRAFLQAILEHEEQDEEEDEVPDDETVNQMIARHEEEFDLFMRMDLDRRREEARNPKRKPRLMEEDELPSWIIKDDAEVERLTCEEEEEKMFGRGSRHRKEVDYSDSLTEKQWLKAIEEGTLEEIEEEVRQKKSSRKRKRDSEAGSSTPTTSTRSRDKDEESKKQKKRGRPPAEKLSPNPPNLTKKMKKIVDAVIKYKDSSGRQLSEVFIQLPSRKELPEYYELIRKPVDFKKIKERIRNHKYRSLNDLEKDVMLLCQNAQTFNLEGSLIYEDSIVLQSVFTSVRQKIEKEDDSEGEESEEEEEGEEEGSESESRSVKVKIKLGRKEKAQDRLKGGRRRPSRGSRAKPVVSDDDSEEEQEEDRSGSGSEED

binding, binds:
ARID1A (from UniProt A2BH40 1-2283)
BAF57 [SMARCE1] (from UniProt O54941 1-411)
BRG1 [SMARCA4] (from UniProt Q3TKT4 1-1613)

Source: publication PMC6486830
